These are yes or no findings as the source states them, for the method shown. Binding seen in cells or lysates may run through a third protein. Some entries that bind do so weakly or less than the wild type.

The text below walks through data of PMC11988680.

The target in this assay is T1, atypical protein kinase C iota (PKC-ι) (human (endogenous in HEY-T30 and ES-2)) (UniProt P41743).
T1 sequence: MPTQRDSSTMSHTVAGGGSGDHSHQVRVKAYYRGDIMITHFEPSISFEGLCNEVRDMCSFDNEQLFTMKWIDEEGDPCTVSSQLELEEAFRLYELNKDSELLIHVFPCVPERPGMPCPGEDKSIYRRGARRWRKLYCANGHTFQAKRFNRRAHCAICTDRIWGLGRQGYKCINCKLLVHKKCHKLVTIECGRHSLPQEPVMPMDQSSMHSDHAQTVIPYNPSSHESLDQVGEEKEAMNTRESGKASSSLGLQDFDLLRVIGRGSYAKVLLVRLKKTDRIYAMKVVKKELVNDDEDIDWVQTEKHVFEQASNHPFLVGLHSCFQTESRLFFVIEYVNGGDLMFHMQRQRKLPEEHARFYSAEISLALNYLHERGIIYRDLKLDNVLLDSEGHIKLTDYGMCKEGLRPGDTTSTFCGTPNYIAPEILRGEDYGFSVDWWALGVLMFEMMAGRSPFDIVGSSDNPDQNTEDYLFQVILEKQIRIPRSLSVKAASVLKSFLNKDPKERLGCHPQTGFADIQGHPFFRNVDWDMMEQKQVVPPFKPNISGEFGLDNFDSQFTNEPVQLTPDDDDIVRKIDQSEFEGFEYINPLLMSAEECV
Kind of assay: co-IP; PKC-ι immunoprecipitated from 1000 µg of protein sample of each cell line with agarose-conjugated PKC-ι-specific antibody, overnight gentle rocking; pellet blotted with p53 antibody; beads without protein sample as negative control.

Turning to “wild-type p53 (WTp53) (from UniProt P04637 1-393)”, the binding result is “binds”.
